Consider four molecules from paper doi:10.1101/2020.01.09.900548.

The chains behind the UniProt entries cited, without tags or fusion partners.
UniProt Q13547, whole entry: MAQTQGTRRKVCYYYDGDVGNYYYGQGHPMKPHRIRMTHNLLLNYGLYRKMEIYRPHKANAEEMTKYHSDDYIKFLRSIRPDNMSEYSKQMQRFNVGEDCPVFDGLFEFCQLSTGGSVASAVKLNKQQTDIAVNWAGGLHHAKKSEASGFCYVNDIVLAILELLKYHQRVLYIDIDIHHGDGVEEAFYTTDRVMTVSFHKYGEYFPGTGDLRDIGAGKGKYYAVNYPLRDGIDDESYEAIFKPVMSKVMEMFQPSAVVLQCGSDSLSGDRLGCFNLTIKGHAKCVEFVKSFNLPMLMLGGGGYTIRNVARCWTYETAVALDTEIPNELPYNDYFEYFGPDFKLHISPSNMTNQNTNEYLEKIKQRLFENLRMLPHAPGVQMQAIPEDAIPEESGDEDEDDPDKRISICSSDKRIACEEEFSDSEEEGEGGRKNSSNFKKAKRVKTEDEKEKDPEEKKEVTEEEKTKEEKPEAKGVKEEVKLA
UniProt Q92769, whole entry: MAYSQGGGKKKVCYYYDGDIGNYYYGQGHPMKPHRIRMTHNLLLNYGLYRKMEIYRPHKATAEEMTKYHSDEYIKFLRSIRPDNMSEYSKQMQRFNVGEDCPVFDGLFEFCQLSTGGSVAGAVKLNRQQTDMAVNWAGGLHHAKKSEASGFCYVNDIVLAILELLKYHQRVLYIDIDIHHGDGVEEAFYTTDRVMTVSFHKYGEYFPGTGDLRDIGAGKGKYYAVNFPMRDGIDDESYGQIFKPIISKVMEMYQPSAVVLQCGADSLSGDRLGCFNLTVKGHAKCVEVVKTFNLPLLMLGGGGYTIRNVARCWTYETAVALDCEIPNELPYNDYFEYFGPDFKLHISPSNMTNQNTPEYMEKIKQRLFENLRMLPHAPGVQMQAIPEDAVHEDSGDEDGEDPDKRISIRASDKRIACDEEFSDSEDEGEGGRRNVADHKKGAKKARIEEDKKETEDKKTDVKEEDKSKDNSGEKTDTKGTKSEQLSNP

No constants are given. Whether binding was seen depends on the method and setting. In cells and extracts the contact can be indirect. Some results given as binding are weak or reduced against the parent protein; the word gives no strength. Tags and fused reporters may be left off the sequences shown.

In experiment [1] the target is T1, FLAG-tagged ZNF704 (FLAG-ZNF704), stably expressed in MDA-MB-231 cells (human) (UniProt Q6ZNC4).
T1 sequence: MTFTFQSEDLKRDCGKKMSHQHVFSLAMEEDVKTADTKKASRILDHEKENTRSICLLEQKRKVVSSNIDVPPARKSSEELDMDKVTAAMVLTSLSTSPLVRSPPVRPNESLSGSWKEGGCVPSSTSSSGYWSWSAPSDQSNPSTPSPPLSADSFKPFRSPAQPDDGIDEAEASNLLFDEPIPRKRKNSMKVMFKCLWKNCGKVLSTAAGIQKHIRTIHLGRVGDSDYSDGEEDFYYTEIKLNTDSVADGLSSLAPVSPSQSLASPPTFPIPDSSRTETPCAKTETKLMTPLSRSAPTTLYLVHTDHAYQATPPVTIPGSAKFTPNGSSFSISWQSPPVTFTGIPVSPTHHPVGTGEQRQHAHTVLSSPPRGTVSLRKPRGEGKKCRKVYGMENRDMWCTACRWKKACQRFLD
Kind of experiment: co-IP + SEC.

The target of experiment [2] is T2, GST-fused ZNF704 (GST-ZNF704) (human) (UniProt Q6ZNC4).
T2 sequence: T1 sequence
Kind of experiment: pull-down.

On to “HDAC1, endogenous in MDA-MB-231 cells (from UniProt Q13547 1-482) (enzyme)”, for which the binding entry in experiment [1] is “binds”. With “HDAC2, endogenous in MDA-MB-231 cells (from UniProt Q92769 1-488) (enzyme)”, the binding entry in experiment [1] was “binds”.

B1: SAP130, in vitro transcribed/translated (protein, UniProt Q9H0E3 1-1048)
chain: MGPPRHPQAGEIEAGGAGGGRRLQVEMSSQQFPRLGAPSTGLSQAPSQIANSGSAGLINPAATVNDESGRDSEVSAREHMSSSSSLQSREEKQEPVVVRPYPQVQMLSTHHAVASATPVAVTAPPAHLTPAVPLSFSEGLMKPPPKPTMPSRPIAPAPPSTLSLPPKVPGQVTVTMESSIPQASAIPVATISGQQGHPSNLHHIMTTNVQMSIIRSNAPGPPLHIGASHLPRGAAAAAVMSSSKVTTVLRPTSQLPNAATAQPAVQHIIHQPIQSRPPVTTSNAIPPAVVATVSATRAQSPVITTTAAHATDSALSRPTLSIQHPPSAAISIQRPAQSRDVTTRITLPSHPALGTPKQQLHTMAQKTIFSTGTPVAAATVAPILATNTIPSATTAGSVSHTQAPTSTIVTMTVPSHSSHATAVTTSNIPVAKVVPQQITHTSPRIQPDYPAERSSLIPISGHRASPNPVAMETRSDNRPSVPVQFQYFLPTYPPSAYPLAAHTYTPITSSVSTIRQYPVSAQAPNSAITAQTGVGVASTVHLNPMQLMTVDASHARHIQGIQPAPISTQGIQPAPIGTPGIQPAPLGTQGIHSATPINTQGLQPAPMGTQQPQPEGKTSAVVLADGATIVANPISNPFSAAPAATTVVQTHSQSASTNAPAQGSSPRPSILRKKPATDGAKPKSEIHVSMATPVTVSMETVSNQNNDQPTIAVPPTAQQPPPTIPTMIAAASPPSQPAVALSTIPGAVPITPPITTIAAAPPPSVTVGGSLSSVLGPPVPEIKVKEEVEPMDIMRPVSAVPPLATNTVSPSLALLANNLSMPTSDLPPGASPRKKPRKQQHVISTEEGDMMETNSTDDEKSTAKSLLVKAEKRKSPPKEYIDEEGVRYVPVRPRPPITLLRHYRNPWKAAYHHFQRYSDVRVKEEKKAMLQEIANQKGVSCRAQGWKVHLCAAQLLQLTNLEHDVYERLTNLQEGIIPKKKAATDDDLHRINELIQGNMQRCKLVMDQISEARDSMLKVLDHKDRVLKLLNKNGTVKKVSKLKRKEKV
In the case of B1, the binding result in experiment [2] is listed as “binds”.

B2: SAP180, endogenous in MDA-MB-231 cells (protein, UniProt Q4LE39 1-1312)
chain: MKALDEPPYLTVGTDVSAKYRGAFCEAKIKTAKRLVKVKVTFRHDSSTVEVQDDHIKGPLKVGAIVEVKNLDGAYQEAVINKLTDASWYTVVFDDGDEKTLRRSSLCLKGERHFAESETLDQLPLTNPEHFGTPVIGKKTNRGRRSNHIPEEESSSSSSDEDEDDRKQIDELLGKVVCVDYISLDKKKALWFPALVVCPDCSDEIAVKKDNILVRSFKDGKFTSVPRKDVHEITSDTAPKPDAVLKQAFEQALEFHKSRTIPANWKTELKEDSSSSEAEEEEEEEDDEKEKEDNSSEEEEEIEPFPEERENFLQQLYKFMEDRGTPINKRPVLGYRNLNLFKLFRLVHKLGGFDNIESGAVWKQVYQDLGIPVLNSAAGYNVKCAYKKYLYGFEEYCRSANIEFQMALPEKVVNKQCKECENVKEIKVKEENETEIKEIKMEEERNIIPREEKPIEDEIERKENIKPSLGSKKNLLESIPTHSDQEKEVNIKKPEDNENLDDKDDDTTRVDESLNIKVEAEEEKAKSGDETNKEEDEDDEEAEEEEEEEEEEEDEDDDDNNEEEEFECYPPGMKVQVRYGRGKNQKMYEASIKDSDVEGGEVLYLVHYCGWNVRYDEWIKADKIVRPADKNVPKIKHRKKIKNKLDKEKDKDEKYSPKNCKLRRLSKPPFQTNPSPEMVSKLDLTDAKNSDTAHIKSIEITSILNGLQASESSAEDSEQEDERGAQDMDNNGKEESKIDHLTNNRNDLISKEEQNSSSLLEENKVHADLVISKPVSKSPERLRKDIEVLSEDTDYEEDEVTKKRKDVKKDTTDKSSKPQIKRGKRRYCNTEECLKTGSPGKKEEKAKNKESLCMENSSNSSSDEDEEETKAKMTPTKKYNGLEEKRKSLRTTGFYSGFSEVAEKRIKLLNNSDERLQNSRAKDRKDVWSSIQGQWPKKTLKELFSDSDTEAAASPPHPAPEEGVAEESLQTVAEEESCSPSVELEKPPPVNVDSKPIEEKTVEVNDRKAEFPSSGSNSVLNTPPTTPESPSSVTVTEGSRQQSSVTVSEPLAPNQEEVRSIKSETDSTIEVDSVAGELQDLQSEGNSSPAGFDASVSSSSSNQPEPEHPEKACTGQKRVKDAQGGGSSSKKQKRSHKATVVNNKKKGKGTNSSDSEELSAGESITKSQPVKSVSTGMKSHSTKSPARTQSPGKCGKNGDKDPDLKEPSNRLPKVYKWSFQMSDLENMTSAERITILQEKLQEIRKHYLSLKSEVASIDRRRKRLKKKERESAATSSSSSSPSSSSITAAVMLTLAEPSMSSASQNGMSVECR
In the case of B2, the binding entry in experiment [1] is “binds”.
